The target of experiment [1] is HA-tagged SAMHD1 WT (sterile alpha motif and HD domain-containing protein 1) (human) (UniProt Q9Y3Z3). Briefly: co-IP; HEK293T cotransfected, lysed 36 h posttransfection; IP with anti-HA antibody (HA-SAMHD1 as bait) and Dynabeads Protein G; nonspecific IgG as negative control; washed with 50 mM Tris (pH7.4), 150 mM NaCl, 1% NP-40, 0.25% sodium deoxycholate; immunoblot.

By UniProt entry, the sequences of proteins in these tests, tags left out.
UniProt Q9Y3Z3: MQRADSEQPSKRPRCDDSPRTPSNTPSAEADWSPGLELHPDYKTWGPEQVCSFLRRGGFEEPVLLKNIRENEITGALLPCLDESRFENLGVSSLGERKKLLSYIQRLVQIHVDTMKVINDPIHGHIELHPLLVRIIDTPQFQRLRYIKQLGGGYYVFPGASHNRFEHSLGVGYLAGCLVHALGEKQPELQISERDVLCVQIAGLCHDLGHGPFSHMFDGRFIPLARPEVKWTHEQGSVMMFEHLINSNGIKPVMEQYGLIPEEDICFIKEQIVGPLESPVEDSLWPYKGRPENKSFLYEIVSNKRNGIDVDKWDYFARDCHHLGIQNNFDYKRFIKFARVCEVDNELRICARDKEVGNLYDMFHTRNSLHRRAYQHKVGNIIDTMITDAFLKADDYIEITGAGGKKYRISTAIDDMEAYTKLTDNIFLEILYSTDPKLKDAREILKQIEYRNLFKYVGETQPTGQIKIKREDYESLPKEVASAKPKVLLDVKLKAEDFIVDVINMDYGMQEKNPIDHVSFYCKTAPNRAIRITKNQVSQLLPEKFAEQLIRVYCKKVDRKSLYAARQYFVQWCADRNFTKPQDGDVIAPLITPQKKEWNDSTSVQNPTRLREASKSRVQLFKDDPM
UniProt Q7Z434: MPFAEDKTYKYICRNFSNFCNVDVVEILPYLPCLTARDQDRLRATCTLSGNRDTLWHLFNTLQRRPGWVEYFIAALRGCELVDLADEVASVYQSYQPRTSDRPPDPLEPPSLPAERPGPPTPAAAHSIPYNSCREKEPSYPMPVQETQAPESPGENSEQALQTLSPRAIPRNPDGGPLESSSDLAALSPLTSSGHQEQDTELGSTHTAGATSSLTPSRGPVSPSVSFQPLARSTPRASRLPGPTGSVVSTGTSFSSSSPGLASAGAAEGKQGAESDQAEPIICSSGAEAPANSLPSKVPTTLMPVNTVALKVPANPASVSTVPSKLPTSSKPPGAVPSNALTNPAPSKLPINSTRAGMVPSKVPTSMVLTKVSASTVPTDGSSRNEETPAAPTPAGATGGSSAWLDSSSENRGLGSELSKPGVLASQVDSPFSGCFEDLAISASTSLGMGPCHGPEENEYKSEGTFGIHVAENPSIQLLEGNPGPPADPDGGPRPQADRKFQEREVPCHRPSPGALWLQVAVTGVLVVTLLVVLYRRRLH

For experiment [2], the target named is FLAG-tagged full-length MAVS (mitochondrial antiviral-signaling protein) (human) (UniProt Q7Z434). Briefly: co-IP; HEK293T cotransfected, lysed 36 h posttransfection; IP with anti-FLAG antibody and Dynabeads Protein G; washed with 50 mM Tris (pH7.4), 150 mM NaCl, 1% NP-40, 0.25% sodium deoxycholate; immunoblot.
Experiment [3] addresses T1, FLAG-tagged full-length IRF7 (IFN regulatory factor 7) (human), Q92985.
T1 chain: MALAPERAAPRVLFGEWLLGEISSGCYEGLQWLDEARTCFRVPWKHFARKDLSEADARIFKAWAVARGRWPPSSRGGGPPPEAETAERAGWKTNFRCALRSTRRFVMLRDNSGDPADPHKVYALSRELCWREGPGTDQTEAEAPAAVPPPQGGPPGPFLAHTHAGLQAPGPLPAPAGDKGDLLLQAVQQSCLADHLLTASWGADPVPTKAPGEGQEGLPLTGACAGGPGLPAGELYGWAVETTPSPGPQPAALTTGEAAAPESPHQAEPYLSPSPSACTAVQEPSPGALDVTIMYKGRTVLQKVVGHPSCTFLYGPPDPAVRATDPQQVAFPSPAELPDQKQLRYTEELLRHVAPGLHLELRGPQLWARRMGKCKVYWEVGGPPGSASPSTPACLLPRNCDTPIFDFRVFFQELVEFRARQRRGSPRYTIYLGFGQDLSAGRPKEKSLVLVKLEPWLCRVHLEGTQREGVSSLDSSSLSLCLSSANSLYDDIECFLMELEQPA
Described as above. The following applies: remark: other sources report otherwise.

Results are given in words; binding and its absence hold for the method and conditions named. Binding seen in cells or lysates may run through a third protein. Some results given as binding are weak or reduced against the parent protein; the word gives no strength. Tags and fused reporters may be left off the sequences shown.

B1: kinase-inactive IKKε K38A (enzyme, UniProt Q14164 1-716)
chain: MQSTANYLWHTDDLLGQGATASVYKARNKKSGELVAVAVFNTTSYLRPREVQVREFEVLRKLNHQNIVKLFAVEETGGSRQKVLVMEYCSSGSLLSVLESPENAFGLPEDEFLVVLRCVVAGMNHLRENGIVHRDIKPGNIMRLVGEEGQSIYKLTDFGAARELDDDEKFVSVYGTEEYLHPDMYERAVLRKPQQKAFGVTVDLWSIGVTLYHAATGSLPFIPFGGPRRNKEIMYRITTEKPAGAIAGAQRRENGPLEWSYTLPITCQLSLGLQSQLVPILANILEVEQAKCWGFDQFFAETSDILQRVVVHVFSLSQAVLHHIYIHAHNTIAIFQEAVHKQTSVAPRHQEYLFEGHLCVLEPSVSAQHIAHTTASSPLTLFSTAIPKGLAFRDPALDVPKFVPKVDLQADYNTAKGVLGAGYQALRLARALLDGQELMFRGLHWVMEVLQATCRRTLEVARTSLLYLSSSLGTERFSSVAGTPEIQELKAAAELRSRLRTLAEVLSRCSQNITETQESLSSLNRELVKSRDQVHEDRSIQQIQCCLDKMNFIYKQFKKSRMRPGLGYNEEQIHKLDKVNFSHLAKRLLQVFQEECVQKYQASLVTHGKRMRVVHETRNHLRLVGCSVAACNTEAQGVQESLSKLLEELSHQLLQDRAKGAQASPPPIAPYPSPTRKDLLLHMQELCEGMKLLASDLLDNNRIIERLNRVPAPPDV
With B1, the binding result in experiment [1] is “binds”.

B2: myc-tagged full-length IKKε (enzyme, UniProt Q14164 1-716)
chain: MQSTANYLWHTDDLLGQGATASVYKARNKKSGELVAVKVFNTTSYLRPREVQVREFEVLRKLNHQNIVKLFAVEETGGSRQKVLVMEYCSSGSLLSVLESPENAFGLPEDEFLVVLRCVVAGMNHLRENGIVHRDIKPGNIMRLVGEEGQSIYKLTDFGAARELDDDEKFVSVYGTEEYLHPDMYERAVLRKPQQKAFGVTVDLWSIGVTLYHAATGSLPFIPFGGPRRNKEIMYRITTEKPAGAIAGAQRRENGPLEWSYTLPITCQLSLGLQSQLVPILANILEVEQAKCWGFDQFFAETSDILQRVVVHVFSLSQAVLHHIYIHAHNTIAIFQEAVHKQTSVAPRHQEYLFEGHLCVLEPSVSAQHIAHTTASSPLTLFSTAIPKGLAFRDPALDVPKFVPKVDLQADYNTAKGVLGAGYQALRLARALLDGQELMFRGLHWVMEVLQATCRRTLEVARTSLLYLSSSLGTERFSSVAGTPEIQELKAAAELRSRLRTLAEVLSRCSQNITETQESLSSLNRELVKSRDQVHEDRSIQQIQCCLDKMNFIYKQFKKSRMRPGLGYNEEQIHKLDKVNFSHLAKRLLQVFQEECVQKYQASLVTHGKRMRVVHETRNHLRLVGCSVAACNTEAQGVQESLSKLLEELSHQLLQDRAKGAQASPPPIAPYPSPTRKDLLLHMQELCEGMKLLASDLLDNNRIIERLNRVPAPPDV
Regarding B2, the binding result in experiment [1] and in experiment [2] was “binds” each time.

B3: FLAG-tagged full-length IRF7 (IFN regulatory factor 7) (protein, UniProt Q92985 1-503)
chain: MALAPERAAPRVLFGEWLLGEISSGCYEGLQWLDEARTCFRVPWKHFARKDLSEADARIFKAWAVARGRWPPSSRGGGPPPEAETAERAGWKTNFRCALRSTRRFVMLRDNSGDPADPHKVYALSRELCWREGPGTDQTEAEAPAAVPPPQGGPPGPFLAHTHAGLQAPGPLPAPAGDKGDLLLQAVQQSCLADHLLTASWGADPVPTKAPGEGQEGLPLTGACAGGPGLPAGELYGWAVETTPSPGPQPAALTTGEAAAPESPHQAEPYLSPSPSACTAVQEPSPGALDVTIMYKGRTVLQKVVGHPSCTFLYGPPDPAVRATDPQQVAFPSPAELPDQKQLRYTEELLRHVAPGLHLELRGPQLWARRMGKCKVYWEVGGPPGSASPSTPACLLPRNCDTPIFDFRVFFQELVEFRARQRRGSPRYTIYLGFGQDLSAGRPKEKSLVLVKLEPWLCRVHLEGTQREGVSSLDSSSLSLCLSSANSLYDDIECFLMELEQPA
With B3, the binding result in experiment [1] is recorded as “binds”.

B4: FLAG-tagged full-length IRF7 (IFN regulatory factor 7), Q92985 1-503 (protein)
chain: MALAPERAAPRVLFGEWLLGEISSGCYEGLQWLDEARTCFRVPWKHFARKDLSEADARIFKAWAVARGRWPPSSRGGGPPPEAETAERAGWKTNFRCALRSTRRFVMLRDNSGDPADPHKVYALSRELCWREGPGTDQTEAEAPAAVPPPQGGPPGPFLAHTHAGLQAPGPLPAPAGDKGDLLLQAVQQSCLADHLLTASWGADPVPTKAPGEGQEGLPLTGACAGGPGLPAGELYGWAVETTPSPGPQPAALTTGEAAAPESPHQAEPYLSPSPSACTAVQEPSPGALDVTIMYKGRTVLQKVVGHPSCTFLYGPPDPAVRATDPQQVAFPSPAELPDQKQLRYTEELLRHVAPGLHLELRGPQLWARRMGKCKVYWEVGGPPGSASPSTPACLLPRNCDTPIFDFRVFFQELVEFRARQRRGSPRYTIYLGFGQDLSAGRPKEKSLVLVKLEPWLCRVHLEGTQREGVSSLDSSSLSLCLSSANSLYDDIECFLMELEQPA
Take B4: in experiment [3], the binding entry is given as “binds”.

Values taken from publication PMC10404699.
